Laboratory results taken from publication PMC6753146.

By UniProt entry, the sequences of proteins in these tests, tags left out.
UniProt Q567U6: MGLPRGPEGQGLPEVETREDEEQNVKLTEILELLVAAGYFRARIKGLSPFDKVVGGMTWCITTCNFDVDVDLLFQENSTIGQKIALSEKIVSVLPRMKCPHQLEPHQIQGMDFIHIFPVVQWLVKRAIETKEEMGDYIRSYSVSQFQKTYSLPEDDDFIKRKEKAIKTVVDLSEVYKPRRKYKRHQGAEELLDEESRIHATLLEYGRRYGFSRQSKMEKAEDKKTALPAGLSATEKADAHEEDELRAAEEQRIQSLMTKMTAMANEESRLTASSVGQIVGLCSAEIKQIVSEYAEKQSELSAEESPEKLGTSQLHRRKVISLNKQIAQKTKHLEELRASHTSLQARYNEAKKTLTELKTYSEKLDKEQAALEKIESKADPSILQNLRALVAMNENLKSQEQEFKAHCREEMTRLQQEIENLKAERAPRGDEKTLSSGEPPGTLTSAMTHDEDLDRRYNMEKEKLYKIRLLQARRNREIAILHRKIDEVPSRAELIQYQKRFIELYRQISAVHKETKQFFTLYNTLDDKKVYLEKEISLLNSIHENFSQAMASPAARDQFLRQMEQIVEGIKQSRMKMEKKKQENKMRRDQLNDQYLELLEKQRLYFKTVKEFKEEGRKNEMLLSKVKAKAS
UniProt O60826: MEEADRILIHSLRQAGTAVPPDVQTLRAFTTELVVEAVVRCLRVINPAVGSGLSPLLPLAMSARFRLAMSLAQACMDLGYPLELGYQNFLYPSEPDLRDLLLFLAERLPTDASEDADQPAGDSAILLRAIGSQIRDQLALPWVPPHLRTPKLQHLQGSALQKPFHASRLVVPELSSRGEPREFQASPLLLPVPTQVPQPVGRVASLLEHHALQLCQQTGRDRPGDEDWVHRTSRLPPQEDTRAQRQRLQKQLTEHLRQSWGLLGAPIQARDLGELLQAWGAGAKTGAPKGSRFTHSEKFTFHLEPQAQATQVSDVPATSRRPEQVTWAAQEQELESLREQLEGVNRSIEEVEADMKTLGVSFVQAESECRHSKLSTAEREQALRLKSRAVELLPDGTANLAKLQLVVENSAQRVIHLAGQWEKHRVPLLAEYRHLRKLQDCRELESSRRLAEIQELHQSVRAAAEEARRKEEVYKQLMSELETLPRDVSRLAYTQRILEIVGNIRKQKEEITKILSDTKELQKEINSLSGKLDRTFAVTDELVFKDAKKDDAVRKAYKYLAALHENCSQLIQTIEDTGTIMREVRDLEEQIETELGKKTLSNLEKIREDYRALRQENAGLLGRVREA

Tests used:
HA-tagged CCDC93 = HA-tagged CCDC93 (UniProt Q567U6); assay: affinity purification with mass spectrometry; HA-tagged bait captured on HA-resin from Triton-X lysates of reconstituted knockout HeLa cells; washes with 350 mM NaCl; elution with HA peptide (1 mg/mL); LC/MS-MS; empty vector as control
HA-tagged VPS26C = HA-tagged VPS26C (UniProt O14972); assay: as above

| Substance | binding (HA-tagged CCDC93) | binding (HA-tagged VPS26C) |
| --- | --- | --- |
| CCDC22 (from UniProt O60826 1-627) | binds |  |
| FAM45A (from UniProt Q8TCE6 1-357) |  | binds |

No constants are given. Whether binding was seen depends on the method and setting. Binding seen in cells or lysates may run through a third protein. Here binding means that the protein was enriched with, or labelled near, the bait; the list need not be complete.
